This assay deals with human CD33 with deletion of exon 2, lacking the V-set domain (CD33^ΔE2) (human). In words: flow cytometry on REH subline expressing CD33^ΔE2.

Results are given in words; binding and its absence hold for the method and conditions named. Binding calls can cover weak binding; strength is not graded here.

Binding data for five molecules are collected here from patent US20260265404A1.

B1: 1B9 antibody (human CD33^PAN antibody clone, hybridoma-derived) (antibody, V domains shown)
VH: QVQLVESGGGVVQPGRSLRLSCAASGFIFSSYDIHWVRQAPGKGLEWVAVIWYDGSHNYYSDSVKGRFTISRDNSKNTLYLQMNSLRAEDTAVYYCARDYSGSYFDYWGQGTLVTVSS
VL: AIQMTQSPSSLSASVGDRVTITCRASQDIRNDLGWYLQRPGKAPKLLIYAASSLQSGVPSRFSGSGSGTDFTLTISSLQPEDFATYYCLQDYSYPRTFGQGTTVEIK
For B1, the binding result is “binds”.

B2: 1D2 antibody (human CD33^PAN antibody clone, hybridoma-derived) (antibody, V domains shown)
VH: QVQLVESGGGVVQPGRSLRLSCAASGFTFSSYDIHWVRQAPGKGLEWVAVIWYDGSQKYYADSVKGRFTISRDNSKNTLYLQMNSLRAEDTAVYYCARDYSGSYYDYWGQGTLVTVSS
VL: AIQMTQSPSSLSASVGDRVTITCRASQGIRNDLGWYQQKPGKAPELLIYATSSLQSGVPSRFSGSGSGTDFTLIISSLQPEDFATYYCLQDYSYPRTFGQGTKVEIK
Take B2: the binding result was “binds”.

B3: 1A9 antibody (human CD33^PAN antibody clone, hybridoma-derived) (antibody, V domains shown)
VH: EVQLVESGGGLVQPGGSLRLSCAASGFTFSIYDMHWVRQATGKGLEWVSAIGTAGDTYYAGSVKGRFTISRENAKNSLYLQMNSLRAGDTAVYYCAREYSGYYFDYWGQGTLVTVSS
VL: AIQMTQSPSSLSASVGDRVTITCRASQDIRNDLGWYQQKPGKAPKILIYGASSLQSGVPSRFSGSGSGTDFTFTISSLQPEDFATYYCLQEYNYPCTFGQGTKLEIK
B3: the binding entry is listed as “binds”.

B4: 1E6 antibody (human CD33^PAN antibody clone, hybridoma-derived) (antibody, V domains shown)
VH: QVQLVESGGGVVQPGRSLRLSCAASGFTFSSYDIHWVRQAPGKGLEWVAVIWYDGSHNYYSDSVKGRFTISRDNSKNTLYLQMNSLRAEDTAVYYCARDYSGSYYDYWGQGTLVTVSS
VL: AIQMTQSPSSLSASVGDRVTITCRASQGIRNDLGWYQQKPGKAPKLLIYAASNLQSGVPSRFSGSGSGTDFTLTISSLQPEDFATYYCLQDYSYPRTFGQGTKVEIK
Consider B4, for which the binding result is on record as “binds”.

B5: 1H10 antibody (human CD33^PAN antibody clone, hybridoma-derived) (antibody, V domains shown)
VH: QVQLVQSGAEVKKPGASVKVSCKGSGYIFTSYDMHWVRQAPGQGLEWMGIIDPSGGSTSYAQKFQGRVTMTRDTSMSTVYMELSSLRSEDTAVYYCTRDYSWSYFDYWGQGTLVTVSS
VL: AIQMTQSPSSLSASVGDRVTITCRASQGIRIYLGWYQQKPGKAPKLLIYATSSLQSGVPSRFSGSGSGTDFTLTISSLQPEDFATYYCLQDYNYPWTFGQGTKVEIK
For the molecule B5, the binding result is “binds”.
